The record followed here is PMC11963761, “Structural basis for control of integrative and conjugative element excision and transfer by the oligomeric winged helix–turn–helix protein RdfS”.

For at least one entry, the source does not settle the construct or the ends of the probe. Negatives hold for the conditions tested. At least one verdict was read from the data and is not stated in words by the source. Tags and fusion partners may be left off the protein sequences shown. Whether high values mean tight binding is not given here for every scale.

This data set has as its target T1, RdfS (Mesorhizobium japonicum R7A (ICEMlSymR7A)) (UniProt Q7AL96).
T1 sequence (looked up): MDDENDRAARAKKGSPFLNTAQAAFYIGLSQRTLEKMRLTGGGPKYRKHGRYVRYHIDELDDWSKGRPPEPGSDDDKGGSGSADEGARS
As to the kind of experiment: SPR. To be noted: 1 uM; SPR: ReDCaT on Biacore T200, 1 uM protein; temperature not given; recombinant protein; residues 1-89; protein details: N-terminal 6xHis removed after purification; label: 5' biotin on S36.

With “ATCCTCGCGGTTGCTTGTCCGAAGCGAAACGAGGACCATC / GATGGTCCTCGTTTCGCTTCGGACAAGCAACCGCGAGGATCCTACCCTACGTCCTCCTGC / GCAGGAGGACGTAGGGTAGG [PrdfS_6 (printed as second PrdfS_5)]”, the binding result is reported as “no binding”.
As for “CAACGAGGCGGGGGGCTGGT / ACCAGCCCCCCGCCTCGTTGCCTACCCTACGTCCTCCTGC / GCAGGAGGACGTAGGGTAGG [attP8_5 20-mer]”, the binding signal (% of attP 8 Rmax) was under 45.
“CAAGCCCTCGCGCCGCAACTCGGCGCGGGGGTTCCCGCCG / CGGCGGGAACCCCCGCGCCGAGTTGCGGCGCGAGGGCTTGCCTACCCTACGTCCTCCTGC / GCAGGAGGACGTAGGGTAGG [PrdfS_1]”: the binding result was “no binding”.
Turning to “CAATTTCGGCGCAGTTGGTCCAACGAGGCGGGGGGCTGGT / ACCAGCCCCCCGCCTCGTTGGACCAACTGCGCCGAAATTGCCTACCCTACGTCCTCCTGC / GCAGGAGGACGTAGGGTAGG [attP_8_M01]”, the binding result is recorded as “binds”.
Still for that read-out and setting: the same measure for “CCCACGACGACCTCGTTCGC / GCGAACGAGGTCGTCGTGGGCCTACCCTACGTCCTCCTGC / GCAGGAGGACGTAGGGTAGG [PrdfS4_4 20-mer]”: “no binding”.
Still for that read-out and setting: the same measure for “CCGTCCCCACGACGACCTCG / CGAGGTCGTCGTGGGGACGGCCTACCCTACGTCCTCCTGC / GCAGGAGGACGTAGGGTAGG [PrdfS4_3 20-mer]”: “no binding”; for “CCTCGTTCGCCGATCCTCGCGGTTGCTTGTCCGAAGCGAA / TTCGCTTCGGACAAGCAACCGCGAGGATCGGCGAACGAGGCCTACCCTACGTCCTCCTGC / GCAGGAGGACGTAGGGTAGG [PrdfS_5]”: “no binding”; for “CGGGGGTTCCCGCCGACGCTCGCCCGAAGGGGCGGCGAAA / TTTCGCCGCCCCTTCGGGCGAGCGTCGGCGGGAACCCCCGCCTACCCTACGTCCTCCTGC / GCAGGAGGACGTAGGGTAGG [PrdfS_2]”: “no binding”.
The same measure, in the same setting: the value for “GAAATTCGGCGCAGTTGGTCCAACGAGGCGGGGGGCTGGT / ACCAGCCCCCCGCCTCGTTGGACCAACTGCGCCGAATTTCCCTACCCTACGTCCTCCTGC / GCAGGAGGACGTAGGGTAGG [attP_8_M04]” was “binds”; that for “GAAGGGGCGGCGAAAACTCCCACCCGACTCTTCGCCCGTC / GACGGGCGAAGAGTCGGGTGGGAGTTTTCGCCGCCCCTTCCCTACCCTACGTCCTCCTGC / GCAGGAGGACGTAGGGTAGG [PrdfS_3]” was “no binding”.
For “GAATATCGGCGCAGTTGGTCCAACGAGGCGGGGGGCTGGT / ACCAGCCCCCCGCCTCGTTGGACCAACTGCGCCGATATTCCCTACCCTACGTCCTCCTGC / GCAGGAGGACGTAGGGTAGG [attP_8_M05]”, the binding result is given as “binds”.
As for “GAATTACGGCGCAGTTGGTCCAACGAGGCGGGGGGCTGGT / ACCAGCCCCCCGCCTCGTTGGACCAACTGCGCCGTAATTCCCTACCCTACGTCCTCCTGC / GCAGGAGGACGTAGGGTAGG [attP_8_M06]”, the binding result was “binds”.
In the case of “GAATTTCCGCGCAGTTGGTCCAACGAGGCGGGGGGCTGGT / ACCAGCCCCCCGCCTCGTTGGACCAACTGCGCGGAAATTCCCTACCCTACGTCCTCCTGC / GCAGGAGGACGTAGGGTAGG [attP_8_M08]”, the binding result was “binds”.
Turning to “GAATTTCGCCGCAGTTGGTCCAACGAGGCGGGGGGCTGGT / ACCAGCCCCCCGCCTCGTTGGACCAACTGCGGCGAAATTCCCTACCCTACGTCCTCCTGC / GCAGGAGGACGTAGGGTAGG [attP_8_M09]”, the binding result is listed as “binds”.
The same measure, in the same setting: the value for “GAATTTCGGCCCAGTTGGTCCAACGAGGCGGGGGGCTGGT / ACCAGCCCCCCGCCTCGTTGGACCAACTGGGCCGAAATTCCCTACCCTACGTCCTCCTGC / GCAGGAGGACGTAGGGTAGG [attP_8_M11]” was “binds”; that for “GAATTTCGGCGCACTTGGTCCAACGAGGCGGGGGGCTGGT / ACCAGCCCCCCGCCTCGTTGGACCAAGTGCGCCGAAATTCCCTACCCTACGTCCTCCTGC / GCAGGAGGACGTAGGGTAGG [attP_8_M14]” was “binds”.
On the same count and under the same terms, the same measure for “GAATTTCGGCGCAGATGGTCCAACGAGGCGGGGGGCTGGT / ACCAGCCCCCCGCCTCGTTGGACCATCTGCGCCGAAATTCCCTACCCTACGTCCTCCTGC / GCAGGAGGACGTAGGGTAGG [attP_8_M15]”: “binds”; for “GAATTTCGGCGCAGTAGGTCCAACGAGGCGGGGGGCTGGT / ACCAGCCCCCCGCCTCGTTGGACCTACTGCGCCGAAATTCCCTACCCTACGTCCTCCTGC / GCAGGAGGACGTAGGGTAGG [attP_8_M16]”: “binds”; for “GAATTTCGGCGCAGTTCGTCCAACGAGGCGGGGGGCTGGT / ACCAGCCCCCCGCCTCGTTGGACGAACTGCGCCGAAATTCCCTACCCTACGTCCTCCTGC / GCAGGAGGACGTAGGGTAGG [attP_8_M17]”: “binds”.
Still for that read-out and setting: the value for “GAATTTCGGCGCAGTTGCTCCAACGAGGCGGGGGGCTGGT / ACCAGCCCCCCGCCTCGTTGGAGCAACTGCGCCGAAATTCCCTACCCTACGTCCTCCTGC / GCAGGAGGACGTAGGGTAGG [attP_8_M18]” was “binds”.
For the sequence “GAATTTCGGCGCAGTTGGACCAACGAGGCGGGGGGCTGGT / ACCAGCCCCCCGCCTCGTTGGTCCAACTGCGCCGAAATTCCCTACCCTACGTCCTCCTGC / GCAGGAGGACGTAGGGTAGG [attP_8_M19]”, the binding result is listed as “binds”.
As to “GAATTTCGGCGCAGTTGGTC / GACCAACTGCGCCGAAATTCCCTACCCTACGTCCTCCTGC / GCAGGAGGACGTAGGGTAGG [attP8_1 20-mer]”, the binding signal (% of attP 8 Rmax) was under 45.
On to “GAATTTCGGCGCAGTTGGTCCAACCAGGCGGGGGGCTGGT / ACCAGCCCCCCGCCTGGTTGGACCAACTGCGCCGAAATTCCCTACCCTACGTCCTCCTGC / GCAGGAGGACGTAGGGTAGG [attP_8_M25]”, for which the binding result is recorded as “binds”.
The same measure, in the same setting: the same measure for “GAATTTCGGCGCAGTTGGTCCAACGACGCGGGGGGCTGGT / ACCAGCCCCCCGCGTCGTTGGACCAACTGCGCCGAAATTCCCTACCCTACGTCCTCCTGC / GCAGGAGGACGTAGGGTAGG [attP_8_M27]”: “binds”; for “GAATTTCGGCGCAGTTGGTCCAACGAGCCGGGGGGCTGGT / ACCAGCCCCCCGGCTCGTTGGACCAACTGCGCCGAAATTCCCTACCCTACGTCCTCCTGC / GCAGGAGGACGTAGGGTAGG [attP_8_M28]”: “binds”.
The same measure, in the same setting: the same measure for “GAATTTCGGCGCAGTTGGTCCAACGAGGCCGGGGGCTGGT / ACCAGCCCCCGGCCTCGTTGGACCAACTGCGCCGAAATTCCCTACCCTACGTCCTCCTGC / GCAGGAGGACGTAGGGTAGG [attP_8_M30]”: “binds”.
The same measure, in the same setting: the same measure for “GAATTTCGGCGCAGTTGGTCCAACGAGGCGCGGGGCTGGT / ACCAGCCCCGCGCCTCGTTGGACCAACTGCGCCGAAATTCCCTACCCTACGTCCTCCTGC / GCAGGAGGACGTAGGGTAGG [attP_8_M31]”: “binds”.
Regarding “GAATTTCGGCGCAGTTGGTCCAACGAGGCGGCGGGCTGGT / ACCAGCCCGCCGCCTCGTTGGACCAACTGCGCCGAAATTCCCTACCCTACGTCCTCCTGC / GCAGGAGGACGTAGGGTAGG [attP_8_M32]”, the binding result was “binds”.
For “GAATTTCGGCGCAGTTGGTCCAACGAGGCGGGCGGCTGGT / ACCAGCCGCCCGCCTCGTTGGACCAACTGCGCCGAAATTCCCTACCCTACGTCCTCCTGC / GCAGGAGGACGTAGGGTAGG [attP_8_M33]”, the binding result is given as “binds”.
Same read-out and setting: the same measure for “GAATTTCGGCGCAGTTGGTCCAACGAGGCGGGGCGCTGGT / ACCAGCGCCCCGCCTCGTTGGACCAACTGCGCCGAAATTCCCTACCCTACGTCCTCCTGC / GCAGGAGGACGTAGGGTAGG [attP_8_M34]”: “binds”; for “GAATTTCGGCGCAGTTGGTCCAACGAGGCGGGGGCCTGGT / ACCAGGCCCCCGCCTCGTTGGACCAACTGCGCCGAAATTCCCTACCCTACGTCCTCCTGC / GCAGGAGGACGTAGGGTAGG [attP_8_M35]”: “binds”.
Same read-out and setting: the value for “GAATTTCGGCGCAGTTGGTCCAACGAGGCGGGGGGCAGGT / ACCTGCCCCCCGCCTCGTTGGACCAACTGCGCCGAAATTCCCTACCCTACGTCCTCCTGC / GCAGGAGGACGTAGGGTAGG [attP_8_M37]” was “binds”.
Turning to “GAATTTCGGCGCAGTTGGTCCAACGAGGCGGGGGGCTCGT / ACGAGCCCCCCGCCTCGTTGGACCAACTGCGCCGAAATTCCCTACCCTACGTCCTCCTGC / GCAGGAGGACGTAGGGTAGG [attP_8_M38]”, the binding result is recorded as “binds”.
As to “GAATTTCGGCGCAGTTGGTCCAACGAGGCGGGGGGCTGCT / AGCAGCCCCCCGCCTCGTTGGACCAACTGCGCCGAAATTCCCTACCCTACGTCCTCCTGC / GCAGGAGGACGTAGGGTAGG [attP_8_M39]”, the binding result was “binds”.
Same read-out and setting: the same measure for “GAATTTCGGCGCAGTTGGTCCAACGAGGCGGGGGGCTGGA / TCCAGCCCCCCGCCTCGTTGGACCAACTGCGCCGAAATTCCCTACCCTACGTCCTCCTGC / GCAGGAGGACGTAGGGTAGG [attP_8_M40]”: “binds”; for “GAATTTCGGCGCAGTTGGTCCAACGAGGCGGGGGGGTGGT / ACCACCCCCCCGCCTCGTTGGACCAACTGCGCCGAAATTCCCTACCCTACGTCCTCCTGC / GCAGGAGGACGTAGGGTAGG [attP_8_M36]”: “binds”.
For the sequence “GAATTTCGGCGCAGTTGGTCCAACGAGGGGGGGGGCTGGT / ACCAGCCCCCCCCCTCGTTGGACCAACTGCGCCGAAATTCCCTACCCTACGTCCTCCTGC / GCAGGAGGACGTAGGGTAGG [attP_8_M29]”, the binding result is recorded as “binds”.
For the sequence “GAATTTCGGCGCAGTTGGTCCAACGTGGCGGGGGGCTGGT / ACCAGCCCCCCGCCACGTTGGACCAACTGCGCCGAAATTCCCTACCCTACGTCCTCCTGC / GCAGGAGGACGTAGGGTAGG [attP_8_M26]”, the binding result is given as “binds”.
Still for that read-out and setting: the same measure for “GAATTTCGGCGCAGTTGGTCCAAGGAGGCGGGGGGCTGGT / ACCAGCCCCCCGCCTCCTTGGACCAACTGCGCCGAAATTCCCTACCCTACGTCCTCCTGC / GCAGGAGGACGTAGGGTAGG [attP_8_M24]”: “binds”.
